Assay: Yield sooting index (YSI)
Details: not given
Method: All chemicals and reagent grade solvents were obtained from commercial vendors and were used as received. ^1H and ^13C NMR spectra were obtained at room temperature on a Bruker AV400 MHz spectrometer, with chemical shifts (6) referenced to the residual solvent signal (^1H and ^13C). GC/MS analysis was carried out using a Hewlett-Packard 6890 GC system equipped with a Hewlett-Packard 5973 mass selective detector. FT-IR measurements were collected on a Perkin Elmer Spectrum Two FT-IR, where a drop of compound was pressed between two KBr plates. FTIR shifts were: very strong (vs), strong (s), medium (m), and weak (w). Combustion calorimeter measurements were performed using an IKA C1 compact combustion calorimeter, the NHOC was calculated by taking into consideration the hydrogen content and subtracting from the gross heat of combustion. DSC measurements were performed using a Netzsch DCS 204 F1 Phoenix. Viscosity and density measurements were performed using an Anton Paar SVM 3001. Elemental analysis was performed by Atlantic Microlabs. YSI measurements were conducted at Yale University.

Structure (SMILES)	YSI (yield sooting index)
CCCCC(CC)C1OC(C)C(C)O1 (centres unmarked) [Compound 2, 2-(1-Ethylpentyl)-4,5-dimethyl-1,3-dioxolane]	69
CCCCCC1OC(C)C(C)O1 (centres unmarked) [Compound 4, 4,5-Dimethyl-2-pentyl-1,3-dioxolane]	49
CCCC1OC(C)C(C)O1 (centres unmarked) [Compound 3, 4,5-Dimethyl-2-propyl-1,3-dioxolane]	36
CCC(CC)C1OC(C)C(C)O1 (centres unmarked) [Compound 1, 2-(1-Ethylpropyl)-4,5-dimethyl-1,3-dioxolane]	58
CCCCCCCC1OC(C)C(C)O1 (centres unmarked) [Compound 5, 4,5-Dimethyl-2-heptyl-1,3-dioxolane]	63

Assay: not given
Details: taken from references; cited from earlier work

Structure (SMILES)	DCN (derived cetane number)
CCCCCCCCCCCC1(C)OCC(C)O1 (centres unmarked) [H2, 2,4-dimethyl-2-undecyl-1,3-dioxolane]	91
CCCCCCCCCCCC1(C)OC(C)C(C)O1 (centres unmarked) [H1, 2,4,5-trimethyl-2-undecyl-1,3-dioxolane]	84
CCCCCCCCCCCC1(C)OCCO1 [H3, 2-methyl-2-undecyl-1,3-dioxolane]	81

— patent US20210107886A1, “PREPARATION OF CYCLIC ACETALS FOR FUEL” (TRIAD NATIONAL SECURITY, LLC, priority 2019, published 2021)
